Test results from article PMC11681384.
Positions count from the first letter of the chain named. No constants are given. Whether binding was seen depends on the method and setting. For some of these results: In cells and extracts the contact can be indirect. Some entries that bind do so weakly or less than the wild type. Each block holds one binder with its values, some of them ahead of it.

What was measured:
[1] = target: T1, RPM1-interacting protein 4 (RIN4), pSPYNE::RIN4 (Arabidopsis thaliana) (UniProt Q8GYN5); assay: split reporter; split-YFP; pSPYNE::RIN4 and pSPYCE::Exo70B1 co-expressed by Agrobacterium GV3101 infiltration in N. benthamiana leaves; fluorescence observed 72 h post-infiltration
T1 sequence: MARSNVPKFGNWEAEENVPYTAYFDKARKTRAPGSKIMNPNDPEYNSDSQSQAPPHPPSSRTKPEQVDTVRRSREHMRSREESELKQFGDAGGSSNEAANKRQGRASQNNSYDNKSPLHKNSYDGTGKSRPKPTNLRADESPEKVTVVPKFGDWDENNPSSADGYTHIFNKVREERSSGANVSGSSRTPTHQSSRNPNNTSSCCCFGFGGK

[2] = target: T2, RIN4^T166D, bait in pDEST32 (Arabidopsis thaliana) (UniProt Q8GYN5); assay: two-hybrid; RIN4 variants as bait in pDEST32, EXO70B1 as prey in pDEST22; yeast strain AH109; transformants selected on SD-Leu-Trp, positive clones plated on SD-Leu-Trp-Ura-His
T2 sequence: T1 sequence with T166D

[3] = target: T3, RPM1-interacting protein 4 (RIN4), full-length, bait in pDEST32 (Arabidopsis thaliana) (UniProt Q8GYN5); assay: as above
T3 sequence: T1 sequence

[4] = target: T4, RIN4^T21E/S160E/T166D, bait in pDEST32 (Arabidopsis thaliana) (UniProt Q8GYN5); assay: as above
T4 sequence: T1 sequence with T21E, S160E, T166D

binding [1]: binds
B1: Exo70B1, pSPYCE::Exo70B1 (protein, UniProt Q9FGH9 1-624)
chain: MAENGEEKLLAVARHIAKTLGHNESMADDILQIFSNFDGRFSREKLAEGQAGEDGSGVATLERALNSIDGQISRFVAADQPIWADPADSAAFLDTIDELVAIIREWSPMASEKPIGICLTRADDMMQQAMFRIEEEFRSLMERGAESFGLNPQGDAGAMNHRFDSEEEEDDDRDFNNGDDIQIPVAQPLTDYDLIIDALPSATINDLHEMAKRMLGAGFGKACSHVYSSCRREFLEESMSRLGLQKLSIEEVHKMPWQELEDEIDRWIKAANVALRILFPSERRLCDRVFFGFSSAADLSFMEVCRGSTIQLLNFADAIAIGSRSPERLFKVLDVFETMRDLMPEFESVFSDQFCSVLRNEAVTIWKRLGEAIRGIFMELENLIRRDPAKAAVPGGGLHPITRYVMNYLRAACRSRQTLEQVFEESNGVPSKDSTLLTVQMSWIMELLESNLEVKSKVYKDPALCYVFLMNNGRYIVQKVKDGDLGLLLGDDWIRKHNVKVKQYHMNYQRSSWNKMLGLLKVDNTAAGMNGLGKTMKEKLKQFNIQFDEICKVHSTWVVFDEQLKEELKISLARLLVPAYGSFIGRFQNLGDIGKNADKYIKYGVEDIEARINELFKGTTTGRK

binding [2]: no binding
binding [3]: binds
binding [4]: no binding
B2: EXO70B1, prey in pDEST22 (protein, UniProt Q9FGH9 1-624)
chain: B1 chain
